Measured values reported in paper PMC7033454.

What was measured:
Experiment in all cases: co-IP; HEK293T cells co-transfected with an HA-tagged and a Flag-tagged protein; lysis buffer 50 mM Tris-HCl pH 7.5, 300 mM NaCl, 1% Triton-X, 5 mM EDTA, 10% glycerol; IP with anti-Flag antibody and Protein-G Sepharose, immunoblot with anti-HA and anti-Flag
[1] = target: T1, Flag-tagged DExD/H-box domain of RIG-I (UniProt O95786)
T1 sequence: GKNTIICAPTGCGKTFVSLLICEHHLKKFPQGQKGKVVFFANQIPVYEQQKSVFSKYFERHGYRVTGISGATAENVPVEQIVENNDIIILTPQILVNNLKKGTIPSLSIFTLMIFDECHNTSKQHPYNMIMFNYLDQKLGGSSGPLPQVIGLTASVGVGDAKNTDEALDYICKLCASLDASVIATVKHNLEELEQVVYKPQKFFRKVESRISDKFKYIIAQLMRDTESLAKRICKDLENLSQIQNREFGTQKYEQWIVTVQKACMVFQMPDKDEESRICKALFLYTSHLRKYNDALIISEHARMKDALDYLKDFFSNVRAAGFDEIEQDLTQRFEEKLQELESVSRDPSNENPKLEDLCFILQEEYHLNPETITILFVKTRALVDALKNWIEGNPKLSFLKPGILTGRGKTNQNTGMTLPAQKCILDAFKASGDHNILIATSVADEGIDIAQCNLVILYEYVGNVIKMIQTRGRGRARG

[2] = target: T2, Flag-tagged repressor domain (RD) of RIG-I (UniProt O95786)
T2 sequence: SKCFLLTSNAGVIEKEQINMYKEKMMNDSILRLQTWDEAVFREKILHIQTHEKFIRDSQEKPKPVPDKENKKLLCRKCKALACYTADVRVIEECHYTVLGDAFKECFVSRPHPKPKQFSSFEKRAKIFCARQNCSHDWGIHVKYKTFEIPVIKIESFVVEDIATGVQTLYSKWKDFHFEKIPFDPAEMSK

[3] = target: T3, Flag-tagged CARD domain of RIG-I (UniProt O95786)
T3 sequence: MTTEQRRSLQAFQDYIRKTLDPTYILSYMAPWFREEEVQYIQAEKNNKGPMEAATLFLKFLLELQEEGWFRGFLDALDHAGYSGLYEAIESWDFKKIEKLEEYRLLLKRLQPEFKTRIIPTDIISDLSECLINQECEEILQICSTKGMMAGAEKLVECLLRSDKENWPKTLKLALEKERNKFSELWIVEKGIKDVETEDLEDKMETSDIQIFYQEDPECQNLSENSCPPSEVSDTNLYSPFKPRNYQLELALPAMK

Flag-tagged IKKε = target: T4, Flag-tagged IKKε (UniProt Q14164)
T4 sequence: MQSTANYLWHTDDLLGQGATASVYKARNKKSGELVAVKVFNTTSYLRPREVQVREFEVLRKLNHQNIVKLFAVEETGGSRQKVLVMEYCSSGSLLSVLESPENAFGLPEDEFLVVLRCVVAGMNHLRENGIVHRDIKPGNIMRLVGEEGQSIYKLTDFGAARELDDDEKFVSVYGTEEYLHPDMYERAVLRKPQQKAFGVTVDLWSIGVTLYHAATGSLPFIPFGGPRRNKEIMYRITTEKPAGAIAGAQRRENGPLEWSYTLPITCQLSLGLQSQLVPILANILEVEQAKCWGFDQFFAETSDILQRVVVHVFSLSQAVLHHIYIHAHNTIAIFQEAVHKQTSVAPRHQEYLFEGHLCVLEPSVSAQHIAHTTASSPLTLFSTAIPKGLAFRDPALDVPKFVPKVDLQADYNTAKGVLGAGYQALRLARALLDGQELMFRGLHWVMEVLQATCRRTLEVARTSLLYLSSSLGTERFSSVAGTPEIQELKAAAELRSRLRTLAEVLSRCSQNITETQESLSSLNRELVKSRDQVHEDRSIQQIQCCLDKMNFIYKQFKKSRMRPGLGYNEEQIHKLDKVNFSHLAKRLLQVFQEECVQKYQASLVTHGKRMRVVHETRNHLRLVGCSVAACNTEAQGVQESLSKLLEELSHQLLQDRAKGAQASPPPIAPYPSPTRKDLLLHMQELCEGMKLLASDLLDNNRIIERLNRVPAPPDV

Q: “HA-tagged Zika virus nonstructural protein 5 (NS5)” was tested. Which binding [1] did it give?
A: no binding

Q: And the binding [2]?
A: no binding

Q: What about the binding [3] of the same substance?
A: binds

Q: What about the binding (Flag-tagged IKKε) of the same substance?
A: no binding

Results are given in words; binding and its absence hold for the method and conditions named. Binding seen in cells or lysates may run through a third protein. For some of these results: A result given as binding can be weak or reduced; the word gives no strength. Sequences can lack the tags named with a protein.
